Reference: article PMC9117277
Numbering of substitutions follows the chain as printed. No constants are given. Whether binding was seen depends on the method and setting. Binding seen in cells or lysates may run through a third protein. Some results given as binding are weak or reduced against the parent protein; the word gives no strength. For some of these results: Where a sequence is shown, tags or fusion partners need not be part of it. One block for each molecule: values may come before it.

By UniProt entry, the sequences of proteins in these tests, tags left out. Residues count along the entry.
UniProt Q8JZU2, residues 14-311: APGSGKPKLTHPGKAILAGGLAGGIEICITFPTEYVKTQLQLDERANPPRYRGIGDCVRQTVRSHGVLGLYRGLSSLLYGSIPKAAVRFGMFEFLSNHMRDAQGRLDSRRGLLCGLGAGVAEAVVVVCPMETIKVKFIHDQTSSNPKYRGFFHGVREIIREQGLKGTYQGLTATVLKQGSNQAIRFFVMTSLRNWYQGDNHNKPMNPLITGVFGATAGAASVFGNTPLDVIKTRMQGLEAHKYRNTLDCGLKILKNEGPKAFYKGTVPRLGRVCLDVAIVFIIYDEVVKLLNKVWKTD

Legend:
Test in all cases: co-IP; mitochondrial lysate (1% NP-40, 20 mM Tris-HCl pH 7.4, 150 mM NaCl) of IL-1β treated primary adipocytes; IP with anti-IRAKM, anti-Slc25a1 or anti-Flag antibody and protein G-sepharose at 4 °C overnight; western blot
[1] = target: T1, IRAKM (mouse (endogenous in primary adipocytes)) (UniProt Q8K4B2)
T1 sequence: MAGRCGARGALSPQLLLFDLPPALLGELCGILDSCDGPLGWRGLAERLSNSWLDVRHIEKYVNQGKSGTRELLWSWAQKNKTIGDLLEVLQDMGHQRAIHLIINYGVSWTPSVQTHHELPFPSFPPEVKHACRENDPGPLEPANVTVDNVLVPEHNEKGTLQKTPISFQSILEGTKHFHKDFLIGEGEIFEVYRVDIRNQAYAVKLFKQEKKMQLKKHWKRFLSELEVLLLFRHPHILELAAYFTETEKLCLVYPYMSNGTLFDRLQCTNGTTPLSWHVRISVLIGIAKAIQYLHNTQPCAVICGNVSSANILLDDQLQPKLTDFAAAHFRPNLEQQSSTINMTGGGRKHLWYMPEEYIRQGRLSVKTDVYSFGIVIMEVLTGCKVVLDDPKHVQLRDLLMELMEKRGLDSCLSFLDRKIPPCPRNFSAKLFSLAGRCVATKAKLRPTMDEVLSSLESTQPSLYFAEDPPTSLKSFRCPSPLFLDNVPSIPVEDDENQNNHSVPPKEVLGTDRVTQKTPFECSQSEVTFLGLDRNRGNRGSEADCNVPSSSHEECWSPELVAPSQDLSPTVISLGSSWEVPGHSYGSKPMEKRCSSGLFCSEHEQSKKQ

[2] = target: T2, Flag-tagged wild-type IRAKM (UniProt Q8K4B2)
T2 sequence: T1 sequence

[3] = target: T3, Flag-tagged IRAKM Phos-mut (S167A/S170A) (UniProt Q8K4B2)
T3 sequence: T1 sequence with S167A, S170A

[4] = target: mitochondrial citrate carrier solute carrier family 25 member 1 (Slc25a1) (mouse (endogenous in primary adipocytes)) (UniProt Q8JZU2)

- binding [1]: binds
- binding [2]: binds
- binding [3]: no binding
Molecule: mitochondrial citrate carrier solute carrier family 25 member 1 (Slc25a1) (from UniProt Q8JZU2 14-311)

- binding [4]: no binding
B1: IRAK2 (protein, UniProt Q8CFA1 1-622)
chain: MACYIYQLPSWVLDDLCRNIDTLSEWDWMQFASYVITDLTQLRKIKSMERVQGVSITRELLWWWSMRQATVQQLVDLLCHLELYRAAQIVLSWKPVPESTSPLPAFPEAVKPGAVATSRRNLKDEQEKVRPVKPRSLLDTGPIMAGAQRQRPCEMDAPCSLKTDAPDSPQSKYCSTSTSAPKQERLLGLPGDRLFWSEADVVQATEDFDQSHRISEGTFADIYQGQRNGVAFAFKKLREVAGSSPGSMDRFLQAEMQLCLRCCHANVLPLLGFCTGRQFHSLIYPYMANGSLHDRLWAQGNSDMLPWPQRASICSGLLLAVEHLHSLDIIHSNVKSANVLLDQHLNPKLAHPVAHPHPDNKKTKYTVMRTHLFQASAAYLPEHFIRVGQLTKQVDIFSCGIVLAEVLTGIPAMDKDRSPVYLKDLLLSEIPNSTSSVCSRKTSMGKAVVKEICQRHVEKRAGLLPEACEEAWATAVSVCLRRRNASVEEARVSLAGVEEQLRGQLSLPWSRVSEATGSSSNTPEETDDVDNSSLSVPSLVMMASCPGAASSPLFTGHGAAQPSTSGRQEADSSSEACTGPQTPQNATETSWKIEINEAKRRLMENIVLYKEERLDSSELFGP
